Data source: PubChem BioAssay AID1053208 (Peter MacCallum Cancer Centre, 2014)
Shown is one part, drawn at random, of about 17,000 reagents tested. 788 of all reagents (4.7%) count as active. 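Calls rest on z-score classes alone; an extra cut-off of viability at most 70% of control was not applied to them.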 The numbers tell different reagents against one gene apart. Not all columns of the deposit are shown. No sequences are given here.

Purpose: 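Find knock-downs that sensitise mouse osteosarcoma cells to doxorubicin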 (primary screen)
System: mouse osteosarcoma cells, early-passage culture from an engineered mouse model of fibroblastic bone tumour
Knock-down reagent: siRNA pool against mouse genes, 40 nM
Timing: about 120 h (48 h before drug, then 72 h with drug)
Challenge: doxorubicin 100 nM for 72 h, roughly 30-40% inhibitory dose
Measurement: 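Luminescent ATP signal taken as viability with or without 100 nM doxorubicin for 72 h; mean of two wells set against non-targeting siRNA and turned into robust z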
Scale: viability z-score with doxorubicin: higher = more viable cells under doxorubicin; viability z-score without drug: higher = more viable cells with knock-down alone
Call rule: 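Called active if knock-down leaves viability unchanged without drug (z within -2 to 2) but lowers it with doxorubicin (z at or under -2)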

Clstn1
- combined z-score class: no change with or without drug
- viability z-score with doxorubicin: -1.12
- viability z-score without drug: -0.84
- activity call: inactive

Gas2l1
- combined z-score class: no change with or without drug
- viability z-score with doxorubicin: 0.67
- viability z-score without drug: 0.84
- activity call: inactive

Pcgf2
- combined z-score class: no change with or without drug
- viability z-score with doxorubicin: 1.35
- viability z-score without drug: -0.51
- activity call: inactive

Fam3b
- combined z-score class: no change with or without drug
- viability z-score with doxorubicin: 1.46
- viability z-score without drug: 0.34
- activity call: inactive

Gtf2h2
- combined z-score class: no change with or without drug
- viability z-score with doxorubicin: -0.22
- viability z-score without drug: 0.17
- activity call: inactive

Cggbp1
- combined z-score class: low cell count with doxorubicin only
- viability z-score with doxorubicin: -2.7
- viability z-score without drug: -1.01
- activity call: active

Vmn1r45
- combined z-score class: no change with or without drug
- viability z-score with doxorubicin: -1.12
- viability z-score without drug: 0.67
- activity call: inactive

Gyg1
- combined z-score class: no change with or without drug
- viability z-score with doxorubicin: -0.67
- viability z-score without drug: -0.51
- activity call: inactive

H2-M10.3
- combined z-score class: no change with or without drug
- viability z-score with doxorubicin: 0.11
- viability z-score without drug: 0.34
- activity call: inactive

Gm15850
- combined z-score class: no change with or without drug
- viability z-score with doxorubicin: -0.34
- viability z-score without drug: -1.01
- activity call: inactive

Or2z2
- combined z-score class: no change with or without drug
- viability z-score with doxorubicin: -1.35
- viability z-score without drug: -0.67
- activity call: inactive

Styk1
- combined z-score class: no change with or without drug
- viability z-score with doxorubicin: 0.45
- viability z-score without drug: 1.52
- activity call: inactive

Or6c201
- combined z-score class: no change with or without drug
- viability z-score with doxorubicin: 0.11
- viability z-score without drug: 1.18
- activity call: inactive

Serpinb10
- combined z-score class: no change with or without drug
- viability z-score with doxorubicin: 0.56
- viability z-score without drug: 0.17
- activity call: inactive

Sack1a
- combined z-score class: no change with or without drug
- viability z-score with doxorubicin: -1.24
- viability z-score without drug: -0.84
- activity call: inactive

Mog
- combined z-score class: low cell count with doxorubicin only
- viability z-score with doxorubicin: -2.47
- viability z-score without drug: -1.18
- activity call: active

Thoc7 #1
- combined z-score class: low cell count with and without drug
- viability z-score with doxorubicin: -3.26
- viability z-score without drug: -3.71
- activity call: inactive

Thoc7 #2
- combined z-score class: no change with or without drug
- viability z-score with doxorubicin: 0.67
- viability z-score without drug: 0.84
- activity call: inactive

Hspa1l
- combined z-score class: no change with or without drug
- viability z-score with doxorubicin: -0.22
- viability z-score without drug: -0.17
- activity call: inactive

Zfp934
- combined z-score class: no change with or without drug
- viability z-score with doxorubicin: -0.22
- viability z-score without drug: -0.84
- activity call: inactive

Phf12
- combined z-score class: no change with or without drug
- viability z-score with doxorubicin: -0.9
- viability z-score without drug: 0
- activity call: inactive

Stab1
- combined z-score class: no change with or without drug
- viability z-score with doxorubicin: 0
- viability z-score without drug: 0.51
- activity call: inactive

Stac2
- combined z-score class: no change with or without drug
- viability z-score with doxorubicin: 1.46
- viability z-score without drug: 0.17
- activity call: inactive

Ascl2
- combined z-score class: no change with or without drug
- viability z-score with doxorubicin: 0
- viability z-score without drug: 0.34
- activity call: inactive

Crebzf
- combined z-score class: no change with or without drug
- viability z-score with doxorubicin: 0.22
- viability z-score without drug: 1.01
- activity call: inactive

Mrgpra5
- combined z-score class: no change with or without drug
- viability z-score with doxorubicin: -1.12
- viability z-score without drug: -0.51
- activity call: inactive

Vmn1r78
- combined z-score class: no change with or without drug
- viability z-score with doxorubicin: 1.69
- viability z-score without drug: 1.18
- activity call: inactive

Hnf4g
- combined z-score class: no change with or without drug
- viability z-score with doxorubicin: -1.12
- viability z-score without drug: -0.51
- activity call: inactive

Look-ups from the list.
Under “viability z-score with doxorubicin”, Thoc7 #1 has -3.26
Thoc7 #2, viability z-score without drug: 0.84
